Results reported in the supplement of paper PMC10849652.
The list shows a part of the results.

Amino acid sequences for entries named in this document (tags omitted). A change or cut given only in a name is not applied to a line headed by its entry.
UniProt Q9BWG4: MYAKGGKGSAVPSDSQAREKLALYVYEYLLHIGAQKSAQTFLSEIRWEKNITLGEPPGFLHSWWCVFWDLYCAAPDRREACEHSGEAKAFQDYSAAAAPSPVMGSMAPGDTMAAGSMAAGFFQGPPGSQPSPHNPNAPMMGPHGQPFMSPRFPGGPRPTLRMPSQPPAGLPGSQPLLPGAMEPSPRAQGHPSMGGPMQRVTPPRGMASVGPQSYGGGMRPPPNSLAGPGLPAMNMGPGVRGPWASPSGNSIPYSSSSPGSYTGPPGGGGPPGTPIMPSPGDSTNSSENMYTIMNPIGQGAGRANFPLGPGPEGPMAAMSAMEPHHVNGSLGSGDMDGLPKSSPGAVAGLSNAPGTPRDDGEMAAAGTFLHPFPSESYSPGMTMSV
UniProt P37108: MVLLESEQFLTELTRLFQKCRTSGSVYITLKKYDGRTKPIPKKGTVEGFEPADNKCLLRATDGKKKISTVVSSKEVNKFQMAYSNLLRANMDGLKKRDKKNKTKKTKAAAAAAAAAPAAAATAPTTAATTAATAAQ
UniProt Q9C004: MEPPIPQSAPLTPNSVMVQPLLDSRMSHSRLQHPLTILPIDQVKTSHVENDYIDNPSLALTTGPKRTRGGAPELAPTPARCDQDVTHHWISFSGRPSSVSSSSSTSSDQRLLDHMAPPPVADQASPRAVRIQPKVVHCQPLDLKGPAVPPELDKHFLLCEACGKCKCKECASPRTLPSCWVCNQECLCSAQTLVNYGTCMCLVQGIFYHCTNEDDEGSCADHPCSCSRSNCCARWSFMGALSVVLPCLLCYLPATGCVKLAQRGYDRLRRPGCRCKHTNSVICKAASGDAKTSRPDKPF
UniProt Q6ZUB1: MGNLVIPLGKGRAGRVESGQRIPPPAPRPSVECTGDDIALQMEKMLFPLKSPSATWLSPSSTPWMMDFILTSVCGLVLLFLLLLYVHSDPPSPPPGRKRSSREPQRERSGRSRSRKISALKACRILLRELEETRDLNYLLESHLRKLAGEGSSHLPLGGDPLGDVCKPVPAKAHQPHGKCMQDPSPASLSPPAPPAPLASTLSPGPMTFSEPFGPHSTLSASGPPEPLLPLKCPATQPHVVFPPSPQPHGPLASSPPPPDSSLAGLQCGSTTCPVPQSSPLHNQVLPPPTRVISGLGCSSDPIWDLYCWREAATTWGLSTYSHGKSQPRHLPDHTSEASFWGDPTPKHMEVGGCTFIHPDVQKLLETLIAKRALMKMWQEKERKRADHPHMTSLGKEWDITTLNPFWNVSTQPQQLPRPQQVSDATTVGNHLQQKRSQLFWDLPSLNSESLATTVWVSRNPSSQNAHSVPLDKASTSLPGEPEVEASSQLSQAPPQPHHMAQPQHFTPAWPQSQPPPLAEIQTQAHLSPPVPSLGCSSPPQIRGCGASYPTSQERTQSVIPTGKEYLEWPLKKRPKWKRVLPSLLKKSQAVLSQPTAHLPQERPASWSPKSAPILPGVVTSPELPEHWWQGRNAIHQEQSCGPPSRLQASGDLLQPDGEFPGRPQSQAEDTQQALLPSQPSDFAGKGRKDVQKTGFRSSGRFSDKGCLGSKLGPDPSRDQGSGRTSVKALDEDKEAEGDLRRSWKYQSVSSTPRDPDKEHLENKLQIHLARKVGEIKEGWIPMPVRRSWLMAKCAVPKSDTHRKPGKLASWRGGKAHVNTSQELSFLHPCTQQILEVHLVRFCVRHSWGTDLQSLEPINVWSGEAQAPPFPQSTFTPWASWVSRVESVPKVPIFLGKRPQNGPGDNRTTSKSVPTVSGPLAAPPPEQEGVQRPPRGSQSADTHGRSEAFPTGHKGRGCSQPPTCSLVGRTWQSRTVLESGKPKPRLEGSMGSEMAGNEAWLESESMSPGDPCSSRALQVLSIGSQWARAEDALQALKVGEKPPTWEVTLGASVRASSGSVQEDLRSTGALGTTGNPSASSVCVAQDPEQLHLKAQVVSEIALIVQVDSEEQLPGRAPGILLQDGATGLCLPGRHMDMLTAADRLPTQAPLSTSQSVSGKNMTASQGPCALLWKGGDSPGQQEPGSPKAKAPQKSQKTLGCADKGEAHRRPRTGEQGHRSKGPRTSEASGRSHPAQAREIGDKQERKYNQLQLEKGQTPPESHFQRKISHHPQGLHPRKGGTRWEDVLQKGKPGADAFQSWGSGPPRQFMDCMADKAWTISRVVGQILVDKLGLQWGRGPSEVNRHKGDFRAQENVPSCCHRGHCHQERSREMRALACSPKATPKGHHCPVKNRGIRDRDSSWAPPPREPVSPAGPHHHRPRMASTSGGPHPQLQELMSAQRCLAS
UniProt Q9UH36: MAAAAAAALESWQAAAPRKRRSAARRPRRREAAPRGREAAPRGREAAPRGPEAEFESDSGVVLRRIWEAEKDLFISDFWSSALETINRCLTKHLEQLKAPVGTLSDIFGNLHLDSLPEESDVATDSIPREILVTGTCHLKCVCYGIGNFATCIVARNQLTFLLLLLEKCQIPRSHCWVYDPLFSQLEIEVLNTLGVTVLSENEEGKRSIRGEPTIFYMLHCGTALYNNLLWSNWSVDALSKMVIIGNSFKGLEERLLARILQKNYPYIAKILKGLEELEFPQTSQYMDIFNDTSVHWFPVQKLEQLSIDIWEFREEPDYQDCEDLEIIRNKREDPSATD
UniProt O75716, whole entry, looked up: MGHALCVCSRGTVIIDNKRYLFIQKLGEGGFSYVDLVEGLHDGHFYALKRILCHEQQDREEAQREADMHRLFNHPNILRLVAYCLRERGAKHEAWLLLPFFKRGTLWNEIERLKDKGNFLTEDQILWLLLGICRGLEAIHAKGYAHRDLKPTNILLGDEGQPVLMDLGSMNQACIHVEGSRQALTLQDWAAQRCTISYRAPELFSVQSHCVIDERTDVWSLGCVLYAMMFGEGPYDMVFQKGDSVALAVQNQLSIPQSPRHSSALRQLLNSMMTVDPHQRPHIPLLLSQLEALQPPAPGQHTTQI
UniProt Q15532, whole entry, looked up: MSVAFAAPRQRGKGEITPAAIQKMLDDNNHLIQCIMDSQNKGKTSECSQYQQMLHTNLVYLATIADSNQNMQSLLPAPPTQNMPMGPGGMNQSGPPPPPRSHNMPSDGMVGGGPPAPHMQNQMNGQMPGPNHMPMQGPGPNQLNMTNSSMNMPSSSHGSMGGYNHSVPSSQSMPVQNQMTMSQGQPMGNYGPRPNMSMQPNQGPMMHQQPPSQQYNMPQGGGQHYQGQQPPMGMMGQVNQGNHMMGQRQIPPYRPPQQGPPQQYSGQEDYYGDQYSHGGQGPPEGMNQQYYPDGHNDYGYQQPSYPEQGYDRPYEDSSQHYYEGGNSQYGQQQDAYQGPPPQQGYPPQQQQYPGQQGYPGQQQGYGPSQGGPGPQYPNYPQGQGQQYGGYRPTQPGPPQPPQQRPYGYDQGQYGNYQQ
UniProt O43278: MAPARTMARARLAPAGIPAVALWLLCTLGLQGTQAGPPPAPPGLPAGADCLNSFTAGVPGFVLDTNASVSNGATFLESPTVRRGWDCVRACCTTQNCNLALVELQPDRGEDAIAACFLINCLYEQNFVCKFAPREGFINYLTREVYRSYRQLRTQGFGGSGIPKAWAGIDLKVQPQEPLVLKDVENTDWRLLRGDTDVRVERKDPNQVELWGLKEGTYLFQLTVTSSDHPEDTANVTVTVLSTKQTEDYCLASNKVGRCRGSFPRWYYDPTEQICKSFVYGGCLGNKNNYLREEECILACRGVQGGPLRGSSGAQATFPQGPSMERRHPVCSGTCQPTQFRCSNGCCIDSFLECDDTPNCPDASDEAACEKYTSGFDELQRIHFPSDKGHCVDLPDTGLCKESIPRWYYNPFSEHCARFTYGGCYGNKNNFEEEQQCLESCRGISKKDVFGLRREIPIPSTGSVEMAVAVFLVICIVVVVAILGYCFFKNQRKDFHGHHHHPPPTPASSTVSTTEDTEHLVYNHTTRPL

What was measured:
Assay in all cases: log2 fold change, soluble protein after heating vs DMSO (PISA); higher = thermal stabilisation; K562 cells, 10 uM, 30 min; active = over 0.2 and 3.5 SD of the protein, either way, in both replicates (recomputed)
[1] = compound: NC(=O)Nc1cc(-c2cccc(F)c2)sc1C(=O)N[C@H]1CCCNC1
Procedure, shortened: (§1)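 K562 cells at 2×10^6 cells/mL were exposed to 10 μM compound for 30 min, then aliquots were heated for 3 min across 48°C-58°C, pooled, and extracted in PBS containing 0.5% NP-40 at 4°C. The supernatant after 21,000xg for 90 min was taken as soluble protein and measured by TMTpro 16plex LC-MS/MS with channel sums equalised. Thermal stability is reported relative to control samples, with values from duplicates. Fold changes are given on a log2 scale.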

[2] = compound: NC(=O)c1cnc(N[C@@H]2CCCC[C@@H]2N)nc1Nc1cccc(-n2nccn2)c1
Procedure, shortened: as §1

[3] = compound: NC1(c2ccc(-c3nc4ccn5c(=O)[nH]nc5c4cc3-c3ccccc3)cc2)CCC1
Procedure, shortened: as §1

entinostat = compound: Nc1ccccc1NC(=O)c1ccc(CNC(=O)OCc2cccnc2)cc1 [entinostat]
Procedure, shortened: as §1

vorinostat = compound: O=C(CCCCCCC(=O)Nc1ccccc1)NO [vorinostat]
Procedure, shortened: as §1

citarinostat = compound: O=C(CCCCCCNC(=O)c1cnc(N(c2ccccc2)c2ccccc2Cl)nc1)NO [citarinostat]
Procedure, shortened: as §1

silmitasertib = compound: O=C(O)c1ccc2c(c1)nc(Nc1cccc(Cl)c1)c1ccncc12 [silmitasertib]
Procedure, shortened: as §1

[4] = compound: c1cc(OCCN2CCCCC2)cc(-c2n[nH]c3ccc(-c4nnc[nH]4)cc23)c1
Procedure, shortened: as §1

[5] = compound: NCC(=O)Nc1ccc(-n2nc(C(F)(F)F)cc2-c2ccc3c(ccc4ccccc43)c2)cc1
Procedure, shortened: as §1

[6] = compound: O=C1NC(=O)C(c2cnc3ccccn23)=C1c1cn2c3c(cc(F)cc13)CN(C(=O)N1CCCCC1)CC2
Procedure, shortened: as §1

entospletinib = compound: c1cn2cc(-c3ccc4cn[nH]c4c3)nc(Nc3ccc(N4CCOCC4)cc3)c2n1 [entospletinib]
Procedure, shortened: as §1

Measured: log2 fold change

SSBP4 (UniProt Q9BWG4)
inactive: [1] 0.177 | [2] 0.041 | [3] -0.024 | entinostat -0.084 | vorinostat -0.107 | citarinostat 0.018 | silmitasertib -0.008 | [4] -0.093

SRP14 (UniProt P37108)
inactive: [1] 0.036 | [2] -0.046 | [3] 0.294 | [5] 0.092 | entinostat -0.094 | vorinostat -0.02 | citarinostat -0.123 | silmitasertib 0.085 | [6] 0.153 | [4] -0.148 | entospletinib 0.121

SPRY4 (UniProt Q9C004)
inactive: [1] 0.039 | [2] 0.042 | [3] 0.027 | [5] 0.03 | entinostat -0.011 | vorinostat -0.018 | citarinostat 0.045 | silmitasertib 0.086 | [6] -0.004 | [4] -0.032 | entospletinib -0.031

SPATA31E1 (UniProt Q6ZUB1)
inactive: [1] -0.389 | [2] -0.545 | [3] -0.093 | [5] -0.186 | entinostat -0.121 | vorinostat -0.086 | citarinostat -0.13 | silmitasertib 0.223 | [4] -0.179 | entospletinib 0.118

SRRD (UniProt Q9UH36)
inactive: [1] 0.11 | [2] -0.057 | [3] -0.406 | entinostat -0.047 | citarinostat 0.056 | silmitasertib 0.281 | [6] 0.096 | [4] -0.039 | entospletinib 0.082

STK16 (UniProt O75716)
inactive: [6] -0.235

SS18 (UniProt Q15532)
inactive: [2] 0.208 | [3] -0.04 | [5] 0.056 | vorinostat -0.274 | citarinostat 0.074 | silmitasertib 0.035 | [4] -0.084 | entospletinib -0.033

SPINT1 (UniProt O43278)
inactive: [1] -0.061 | [5] 0.18 | entinostat -0.243 | vorinostat 0.175 | [6] -0.269
